{"source": "patent US20100041045A1", "about": "“NUCLEIC ACID FLUORESCENT STAINS” (SIGMA-ALDRICH CO., priority 2007, published 2010)", "key": {"[1]": {"system": "dsDNA", "details": "cited from earlier work"}, "[2]": {"system": "HindIII-digested lambda DNA", "test": "Prestaining of DNA during electrophoresis (Example 3)", "details": "laser scanner 473/520 and 532/580 nm filter sets, low levels of DNA = 20 ng/lane", "description": "The ability of another of the new unsymmetrical monomethincyanine dyes, i.e., compound 7 (SL-2833), to stain DNA during electrophoresis (i.e., “prestain”) was compared to that of ethidium bromide (EtBr). For this, 1 μM of 7 (SL-2833) or EtBr was added to the heated agarose before the gel was poured. The gels were loaded with 200 ng/lane and 20 ng/lane of HindIII-digested lambda DNA (Cat. No. D9780; Sigma-Aldrich) and run at 90 V for about 90 min. After electrophoresis, the gels were imaged as described above in Example 2."}}, "note": "At least one structure is not confirmed: it was looked up by name or label, or the drawing left a doubt."}
{"smiles": "CC[n+]1c(-c2ccccc2)c2cc(N)ccc2c2ccc(N)cc21", "note": "[EtBr, ethidium bromide, reference compound]", "values": [{"measurement": "specificity for dsDNA", "setting": "[1]", "value": "not specific for dsDNA, but also binds to ssDNA"}, {"measurement": "imaging of stained DNA at longer wavelengths", "setting": "[2]", "value": "not detected"}, {"measurement": "imaging of stained DNA at longer wavelengths", "setting": "[2]; listed as ethidium bromide", "value": "only high levels"}]}
